The assay is described as follows: qHTS Assay for Modulators of Lamin A Splicing. The following applies: HeLa LMNA splicing GFP/RFP minigene ratio, 48 h. In outline: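 S3 HeLa cells stably expressing lamin A-EGFP splicing minigene plus DsRed2, 600 cells/well, 48 h compound exposure at 37C. Laser-scanning cytometry; analysed as GFP (500-530 nm)/RFP (575-640 nm) total intensity ratio; 0.5% DMSO vehicle.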
On the technique in general: qHTS replaces the single test concentration by a dilution series.

Where [1] appears, read: measured here: RFP viability control channel.
Setting [2] is: measured here: GFP splicing reporter channel.

Structures are written as SMILES. The list shows a part of the results. These are further read-outs of the screen, such as a control signal, another cell line or another target. No call is given for them. The list favours compounds with an active or inconclusive main result. Potencies come from curve fits of mixed quality, noted in brackets.

Among the data in PubChem BioAssay AID1487 (National Center for Advancing Translational Sciences (NCATS), 2009) are AC50 values, retold here.

For orientation: AC50 means the midpoint of the concentration-response curve, whichever way the signal moves. Consider `Cc1[nH]c2ccc(-c3n[nH]c(=S)n3Cc3ccccc3)cc2c1C`, for which the AC50 under setting [1] is 35.5 µM [rising, single point].
Consider `CCOc1ccc(C(=O)NC(=S)NC2CCCC2)cc1[N+](=O)[O-]`, for which the AC50 is, setting by setting: under setting [2], 14.1 µM [rising, partial curve]; under setting [1], 31.6 µM [rising, single point].
With `O=C(c1ccccc1)N1CCN(Cc2ccccc2Br)CC1`, the concentration at half-maximal activity (AC50) under setting [1] is 3.16 µM [rising, full curve].
`O=C(CN(C(=O)CSc1nnc(COc2ccccc2)o1)c1ccc(F)cc1)NC1CCCC1`: under setting [1], the AC50 is 15.8 µM [rising, single point].
`Cc1cccc(-c2n[nH]c(=S)n2/N=C/c2ccc(C)o2)c1`: the half-maximal activity concentration (AC50) under setting [2] is 22.4 µM [rising, single point].
As to `Cc1cccc(N=N/C(=C\O)C(=O)c2ccc(Br)cc2)c1`, the AC50 by setting is: under setting [2], 35.5 µM [falling, single point]; under setting [1], 5.62 µM [falling, partial curve].
For `Cc1cccc(NC(=O)COc2ccc(Br)cc2C)n1`, the concentration at half-maximal activity (AC50) is, setting by setting: under setting [2], 15.8 µM [rising, single point]; under setting [1], 17.8 µM [rising, single point].
As for `CCSC(=N)N`, the half-maximal activity concentration (AC50) under setting [2] was 0.00447 µM [falling, full curve, poor fit].
`O=C(CCc1ccc(S(=O)(=O)N2CCOCC2)cc1)Nc1ccc2ccccc2c1`: the AC50 under setting [1] was 25.1 µM [rising, single point].
As to `Cc1ccc(-n2c(=O)c3ccccc3n(CC(=O)C(C)(C)C)c2=O)cc1`, the AC50 under setting [2] is 0.794 µM [rising, single point].
Consider `O=C(Nc1cccc([N+](=O)[O-])c1)c1[nH]ncc1Cl`, for which the AC50 is 14.1 µM [rising, partial curve] under setting [2] and 14.1 µM [rising, single point] under setting [1].
With `COc1ccc(CCNC(=O)c2cnc3scc(C)n3c2=O)cc1OC`, under setting [1], the half-maximal activity concentration (AC50) was 0.708 µM [rising, full curve].
As for `CCc1ccc(-c2cc(C(=O)N/N=C/c3c[nH]c4ccccc34)[nH]n2)cc1`, the AC50 under setting [1] was 25.1 µM [rising, single point].
`CSCCC(NC(=O)c1ccccc1)c1nc(-c2ccccc2)no1` (stereo not given): the half-maximal activity concentration (AC50) under setting [1] was 12.6 µM [rising, partial curve].
Regarding `COCCn1cnnc1SCC(=O)Nc1cccc(S(=O)(=O)N2CCCCCC2)c1`, the AC50 by setting is: under setting [2], 0.158 µM [falling, full curve, poor fit]; under setting [1], 0.158 µM [falling, full curve, poor fit].
For the compound `CCC(=O)N1c2ccccc2CC1C(=O)NCc1ccc(CC)cc1` (stereo not given), the AC50 is 0.316 µM [rising, partial curve, poor fit] under setting [2] and 0.794 µM [rising, full curve, poor fit] under setting [1].
Take `COc1ccccc1CC(=O)NNS(=O)(=O)c1ccc([N+](=O)[O-])cc1`: the concentration at half-maximal activity (AC50) under setting [1] was 0.178 µM [falling, full curve, poor fit].
With `O=C(Nc1cccc(S(=O)(=O)C(F)F)c1)c1ccc(Cl)c(S(=O)(=O)N2CCOCC2)c1`, the AC50 under setting [1] was 20 µM [rising, partial curve, poor fit].
As to `C=C(C)CNC(=S)N/N=C/c1ccc(N2CCOCC2)cc1`, the AC50 by setting is: under setting [2], 1.58 µM [rising, partial curve, poor fit]; under setting [1], 15.8 µM [rising, partial curve, poor fit].
On to `CC1(C)CC(=O)C2=C(C1)OC(c1ccc(O)cc1)C(C#N)=C2N` (stereo not given), for which the AC50 under setting [1] was 0.282 µM [rising, full curve, poor fit].
The same measure, in the same setting: in the case of `CS(=O)(=O)c1ccc(Cl)c(C(=O)O)c1` it was 5.62 µM [rising, single point].
With `N#CC1=C(SCc2ccccc2)NC2=C(C(=O)CCC2)C1c1ccc2c(c1)OCO2` (stereo not given), the AC50 is 8.91 µM [rising, partial curve] under setting [2] and 12.6 µM [rising, single point] under setting [1].
Take `CCOC(=O)c1[nH]c(C)c(C(=O)N2CCN(c3cccc(Cl)c3)CC2)c1C`: the AC50 under setting [1] is 31.6 µM [rising, single point].
Still for that read-out and setting: the same measure for `CN(C)CCOc1cccc(Br)c1`: 2.51 µM [rising, partial curve, poor fit].
Consider `CC(=O)c1ccc(S(=O)(=O)NC(=O)NC2CCCCC2)cc1`, for which, under setting [1], the concentration at half-maximal activity (AC50) is 14.1 µM [falling, single point].
For the compound `COc1ccc(C(=O)CSc2cc(C)nc(SCC(=O)c3ccc(C)cc3)n2)cc1`, the concentration at half-maximal activity (AC50) by setting is: under setting [2], 2.51 µM [rising, full curve, poor fit]; under setting [1], 3.55 µM [rising, single point].
Turning to `CCc1c(C)nc2ncnn2c1N1CCCC(C(=O)Nc2cc(F)ccc2C)C1` (stereo not given), the half-maximal activity concentration (AC50) under setting [1] was 22.4 µM [rising, single point].
With `CCCCNC(=O)Cn1cnc2c(cnn2-c2ccc(C)c(C)c2)c1=O`, the AC50 under setting [1] was 0.112 µM [rising, partial curve, poor fit].
Same read-out and setting: in the case of `Cc1ccc(-n2ncc(C(=O)NCc3ccc4c(c3)OCO4)c2C2CCN(C(=O)OC(C)(C)C)CC2)c(C)c1` it was 5.62 µM [falling, single point].
On to `COc1cc(C(=O)N/N=C/c2sccc2C)cc(OC)c1OC`, for which, under setting [2], the half-maximal activity concentration (AC50) was 2 µM [falling, partial curve, poor fit].
On to `COc1ccc(Nc2nc(-c3ccc(OC)cc3)cs2)cc1`, for which the AC50 under setting [2] was 5.01 µM [rising, partial curve].
Consider `CN(C)CCCN(C(=O)c1ccc2c(c1)CCCC2)c1nc2ccc(Cl)cc2s1`, for which, under setting [1], the AC50 was 35.5 µM [rising, single point].
Regarding `Cc1ccc(OCc2nnc(SC(C)C(=O)O)n2Cc2ccccc2)cc1` (stereo not given), the AC50 under setting [1] was 0.0282 µM [falling, full curve, poor fit].
On to `O=C(Cc1coc2cc3c(cc12)CCC3)NCC1(N2CCCCC2)CCCCC1`, for which, under setting [1], the AC50 was 14.1 µM [rising, partial curve, poor fit].
In the case of `O=C(O)C1C2C=CC(O2)C1C(=O)NCc1ccccc1Br` (stereo not given), the AC50 reads like this: under setting [2], 5.62 µM [falling, single point]; under setting [1], 3.55 µM [falling, single point].
On to `CC(C)=NNc1nc(-c2ccc([N+](=O)[O-])cc2)cs1`, for which the AC50 is 8.91 µM [rising, single point] under setting [2] and 3.55 µM [rising, single point] under setting [1].
`Cc1ccccc1C(=O)c1c[nH]c(C(=O)NCc2ccco2)c1`: the AC50 under setting [2] was 8.91 µM [falling, partial curve].
Consider `CCc1nnc(NC(=O)CSc2nccn2Cc2ccc(Cl)cc2)s1`, for which the AC50 under setting [2] is 0.0355 µM [rising, full curve] and the AC50 under setting [1] is 0.0501 µM [rising, full curve, poor fit].
Consider `O=C(O)CC(C(=O)Nc1cccc(C(F)(F)F)c1)C1CCCO1` (stereo not given), for which, under setting [1], the AC50 was 35.5 µM [rising, single point].
As to `Cc1ccc(S(=O)(=O)NNC(=O)c2cccnc2)cc1`, the half-maximal activity concentration (AC50) by setting is: under setting [2], 1.26 µM [rising, single point]; under setting [1], 1.26 µM [rising, single point].
For `CCCc1nnc(SCc2cc(=O)c3c(C)cc(C)cc3[nH]2)n1C`, the AC50 was 1.26 µM [rising, partial curve] under setting [2] and 1.78 µM [rising, partial curve] under setting [1].
Consider `COc1ccc(NC(=S)NCc2cccs2)c(OC)c1`, for which the AC50 under setting [2] is 0.0158 µM [rising, full curve, poor fit].
As to `CCc1c(C(=O)Nc2ccc(S(=O)(=O)N3CCOCC3)cc2)csc1C`, the half-maximal activity concentration (AC50) reads like this: under setting [2], 11.2 µM [rising, partial curve, poor fit]; under setting [1], 14.1 µM [rising, single point].
As for `CC1(c2ccc(OCC#N)cc2)C=C(c2ccc(OCC#N)cc2)n2nc(C(F)(F)F)nc2N1` (stereo not given), under setting [2], the AC50 was 11.2 µM [rising, partial curve].
As for `COCCNC(=O)c1ccc2c(c1)ncn2-c1cc(C)ccc1OC`, the AC50 under setting [1] was 1.26 µM [falling, single point].
As to `CCc1ccc(CNC(=O)Cn2nc(C)c3nn(-c4ccc(Cl)cc4)c(C)c3c2=O)cc1`, the AC50 runs as follows: under setting [2], 22.4 µM [falling, single point]; under setting [1], 22.4 µM [falling, single point].
Consider `COc1ccc(OCC(=O)NCc2ccc3c(c2)CCN3C(=O)c2cccc(C)c2)cc1`, for which the AC50 under setting [1] is 3.55 µM [rising, single point].
`CSc1ccc(CCNC(=O)c2ccc(-n3c(C)cc4c3CCC(C)C4)cc2)cc1` (stereo not given): under setting [1], the AC50 was 0.1 µM [rising, single point].
In the case of `COc1ccccc1C(=O)NNC(=O)c1cccc(F)c1`, the AC50 under setting [1] was 3.98 µM [rising, full curve].
Turning to `CCN(CC)S(=O)(=O)c1cccc(-c2n[nH]c(=S)n2/N=C/c2ccc(OC)cc2)c1`, the half-maximal activity concentration (AC50) under setting [2] is 22.4 µM [rising, single point].
`CS(=O)(=O)N(CC(=O)NCCSc1ccccn1)c1cccc2ccccc12`: the AC50 runs as follows: under setting [2], 15.8 µM [rising, partial curve, poor fit]; under setting [1], 11.2 µM [rising, partial curve, poor fit].
For `CCCn1c(-c2cccnc2Cl)nc2cc(Cl)c(Cl)cc21`, the AC50 under setting [1] was 22.4 µM [rising, single point].
On the same count and under the same terms, the same measure for `CCCCC(=O)OC1=CN(Cc2ccccc2)S(=O)(=O)c2ccccc21`: 6.31 µM [rising, single point].
Take `OCCCNC(=S)Nc1ccc(Nc2ccccc2)cc1`: the AC50 under setting [1] is 3.16 µM [rising, partial curve, poor fit].
Regarding `CS(=O)(=O)N(Cc1ccccc1)c1ccccc1C(=O)N1CCN(c2ccccc2)CC1`, the AC50 under setting [1] was 11.2 µM [rising, single point].
For the compound `Cc1cccc(C)c1-n1c(C)cc(/C=C2\C(=O)NN(c3ccccc3)C2=O)c1C`, the concentration at half-maximal activity (AC50) under setting [1] was 17.8 µM [falling, single point].
Regarding `CN(C)S(=O)(=O)c1ccc(Oc2ccccc2)cc1`, the AC50 under setting [1] was 35.5 µM [rising, single point].
As to `COc1cc(C)c(C(C)C)cc1S(=O)(=O)n1cnc(C)c1`, the AC50 under setting [1] was 5.01 µM [rising, full curve].
